Measured data: PubChem BioAssay AID504764 (Drosophila RNAi Screening Center, 2011)

Screen: 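Genes whose knock-down alters Notch-dependent transcription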 (primary screen)
System: Drosophila Kc167 cells
Reagent: long dsRNA against Drosophila genes
Time to read-out: about 5 days (4 days dsRNA, then 24 h after transfection)
Treatment: transfection of constitutively active membrane-tethered Notch lacking the extracellular domain, read 24 h later
Measured: 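Firefly luciferase from an E(spl)m3 reporter with active Notch, plus control-promoter and uninduced reporter wells for normalisation; unnormalised counts, duplicate wells a and b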
Direction: induced reporter light, run 1, well a and induced reporter light, run 1, well b: higher = more light from the Notch target reporter with active Notch; control promoter light, run 1, well a and control promoter light, run 1, well b: higher = more light from the viral control promoter (cell number, transfection, viability); uninduced reporter light, run 1, well a: higher = more light from the Notch target reporter without active Notch
Call rule: 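Wells with low control signal or poorly matching duplicates excluded; duplicates averaged; per source plate, z beyond ±2 for induced/control log2 ratio or beyond ±1.8 for induced/uninduced marks a hit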
Meaning of the calls: active = modifier hit (raised or lowered Notch signal); inactive = not a hit
The deposit covers about 22,000 reagents; this is a random part of those that have a named target and a result. Of all reagents, 403 (1.9%) got an active call. 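Unnormalised raw counts per well; ratio z-scores behind the hit calls and whether each hit raises or lowers signal are not deposited.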 The numbers tell different reagents against one gene apart. Names joined by + are all predicted targets of the reagent. No sequences are given here. Not stated in the record: the amount of reagent.

| Target gene | dsRNA no. | induced reporter light, run 1, well a | induced reporter light, run 1, well b | control promoter light, run 1, well a | control promoter light, run 1, well b | uninduced reporter light, run 1, well a | Outcome |
| --- | --- | --- | --- | --- | --- | --- | --- |
| byn | 1 | 2.04e5 | 1.62e5 | 3.06e5 | 1.97e5 | 11545 | inactive |
| CG32643 | 1 | 66630 | 61935 | 72935 | 58595 | 4865 | inactive |
| Ccm3 | 1 | 2.91e5 | 2.42e5 | 2.43e5 | 2.61e5 | 21960 | inactive |
| CG34266 | 1 | 1.29e5 | 1.39e5 | 1.81e5 | 2.18e5 | 7405 | inactive |
| Acsf2 | 1 | 2.02e5 | 1.63e5 | 2.30e5 | 2.44e5 | 10860 | inactive |
| CG10214 | 1 | 1.55e5 | 1.86e5 | 2.36e5 | 2.42e5 | 13715 | inactive |
| gammaCOP | 1 | 29755 | 27160 | 47255 | 42050 | 1730 | inactive |
| CG5773 | 1 | 52385 | 62945 | 73410 | 65830 | 4640 | inactive |
| HemK2 + Snapin | 1 | 1.77e5 | 2.31e5 | 2.14e5 | 2.43e5 | 19328 | inactive |
| HemK2 + Snapin | 2 | 1.01e5 | 1.09e5 | 96335 | 66110 | 11445 | inactive |
| CG6204 | 1 | 2.05e5 | 2.24e5 | 2.41e5 | 2.86e5 | 14020 | inactive |
| SMC3 | 1 | 22688 | 32845 | 25825 | 19092 | 3095 | inactive |
| Nepl5 | 1 | 80585 | 1.05e5 | 78550 | 83270 | 6228 | inactive |
| Elo68beta | 1 | 1.34e5 | 1.31e5 | 1.90e5 | 1.34e5 | 7260 | inactive |
| Fur2 | 1 | 55905 | 45340 | 55420 | 61160 | 7410 | inactive |
| rha | 1 | 2.52e5 | 1.82e5 | 2.71e5 | 2.73e5 | 14775 | inactive |
| CG11200 | 1 | 1.10e5 | 1.42e5 | 1.92e5 | 2.52e5 | 9890 | inactive |
| pont | 1 | 77785 | 89410 | 87915 | 69965 | 3605 | inactive |
| beta-Spec | 1 | 65585 | 73415 | 64120 | 44205 | 8815 | inactive |
| CG7352 | 1 | 90835 | 1.20e5 | 1.11e5 | 92155 | 8882 | inactive |
| Cyp6a23 | 1 | 93860 | 1.16e5 | 1.39e5 | 1.28e5 | 10700 | inactive |
| CG12126 | 1 | 2.13e5 | 1.86e5 | 2.50e5 | 2.32e5 | 16660 | inactive |
| Rcd7 | 1 | 1.70e5 | 1.29e5 | 1.35e5 | 1.22e5 | 11150 | inactive |
| CG15252 | 1 | 1.00e5 | 96330 | 1.65e5 | 1.54e5 | 8390 | inactive |
| Mco1 | 1 | 1.19e5 | 1.33e5 | 69775 | 82610 | 15245 | inactive |
| CAH14 | 1 | 58430 | 48200 | 47100 | 57965 | 1628 | inactive |
| CG42264 | 1 | 1.64e5 | 1.40e5 | 2.74e5 | 2.55e5 | 11215 | inactive |
| CG42264 | 2 | 1.26e5 | 1.21e5 | 3.26e5 | 2.81e5 | 10992 | inactive |
| CG6567 | 1 | 59695 | 60285 | 79700 | 53370 | 6475 | inactive |
| Osi16 | 1 | 65315 | 97795 | 67900 | 68980 | 4055 | inactive |
| mRpS34 | 1 | 2.17e5 | 1.63e5 | 2.47e5 | 2.10e5 | 9400 | inactive |
| CG17528 | 1 | 1.58e5 | 1.75e5 | 2.62e5 | 2.69e5 | 9955 | inactive |
| Tsp97E | 1 | 1.74e5 | 1.65e5 | 2.25e5 | 2.34e5 | 15645 | inactive |
| RpL9 | 1 | 50970 | 54830 | 32675 | 52185 | 6010 | inactive |
| Myo10A | 1 | 1.18e5 | 90845 | 1.99e5 | 1.22e5 | 7205 | inactive |
| Myo10A | 2 | 1.28e5 | 1.14e5 | 1.89e5 | 1.99e5 | 9230 | inactive |
| GrlHz | 1 | 1.04e5 | 97540 | 82565 | 81540 | 7782 | inactive |
| CG4658 | 1 | 1.71e5 | 1.69e5 | 92255 | 1.40e5 | 21335 | inactive |
| nanos | 1 | 98220 | 85595 | 90105 | 81360 | 9595 | inactive |
| SP | 1 | 1.05e5 | 90200 | 1.55e5 | 1.54e5 | 7755 | inactive |
| CG8289 | 1 | 1.48e5 | 1.26e5 | 1.21e5 | 46750 | 10810 | inactive |
| CG17032 | 1 | 1.41e5 | 1.49e5 | 2.01e5 | 1.70e5 | 9100 | inactive |
| Rat1 | 1 | 14290 | 15560 | 18150 | 23310 | 1888 | active |
| vimar | 1 | 1.95e5 | 1.48e5 | 1.56e5 | 1.65e5 | 10385 | inactive |
| zetaCOP | 1 | 19280 | 16150 | 22010 | 20282 | 870 | inactive |
| CG13659 | 1 | 1.15e5 | 1.17e5 | 1.78e5 | 1.74e5 | 13260 | inactive |
| CG43707 | 1 | 1.48e5 | 1.01e5 | 1.09e5 | 1.13e5 | 6930 | inactive |
| CG43707 | 2 | – | – | – | – | – | inactive |
| CG10175 | 1 | 2.04e5 | 1.79e5 | 1.47e5 | 1.66e5 | 14330 | inactive |
| CG10175 | 2 | 1.77e5 | 1.66e5 | 2.15e5 | 1.94e5 | 16055 | inactive |
| CG10175 | 3 | – | – | – | – | – | inactive |
| cv | 1 | 1.45e5 | 1.51e5 | 3.22e5 | 2.75e5 | 11875 | inactive |
| Taldo | 1 | 1.68e5 | 1.98e5 | 1.46e5 | 1.47e5 | 12665 | inactive |
| Gdap1 | 1 | 2.49e5 | 1.84e5 | 1.69e5 | 1.65e5 | 10020 | inactive |
| CG33758 | 1 | 49590 | 54925 | 60155 | 71700 | 3115 | inactive |
| CG10801 | 1 | 1.57e5 | 1.35e5 | 2.34e5 | 2.26e5 | 10735 | inactive |
| CG10809 | 1 | 1.80e5 | 1.35e5 | 1.80e5 | 1.63e5 | 9238 | inactive |
| CG14325 | 1 | 2.30e5 | 2.10e5 | 2.24e5 | 2.13e5 | 18860 | inactive |
| PSMG1 | 1 | 1.34e5 | 1.41e5 | 88580 | 83530 | 10825 | inactive |
| Ir60d | 1 | 1.81e5 | 1.77e5 | 1.66e5 | 1.46e5 | 12145 | inactive |
| Tengl1 | 1 | 1.65e5 | 1.72e5 | 1.17e5 | 64875 | 11915 | inactive |
| trn | 1 | 1.58e5 | 1.26e5 | 1.75e5 | 1.67e5 | 8325 | inactive |
| hbs | 1 | 1.09e5 | 1.09e5 | 1.39e5 | 1.46e5 | 10205 | inactive |
| CG32106 | 1 | 2.86e5 | 2.49e5 | 3.20e5 | 3.87e5 | 26490 | inactive |
